Measurements as given in patent US20230108270A1, “STABILIZATION OF COMPOUNDS AS CYCLODEXTRIN COMPLEXES” (University of Pittsburgh - Of the Commonwealth System of …, priority 2020, published 2023).
At least one read-out could not be matched to a standard name with certainty.

Test: Stability evaluation of NO2-OA/β-cyclodextrin complex dry powder at different temperatures in air
Type: physicochemical
Conditions: different temperatures in presence of air, 28 day period (70° C. only up to 14 days)

Question: Which “stability (recovery of NO2-OA) after exposure to the different conditions defined in FIG. 3” value does the source give for `CCCCCCCCC(=CCCCCCCCC(=O)O)[N+](=O)[O-]` [NO2-OA, 10-nitro-octadec-9-enoic acid] here?
Answer: significant degradation
